This is an account of results in patent US9499466B2, “Diene-based carboxylate anion and salt thereof, and polymerizable or curable composition thereof” (NIPPON SHOKUBAI CO., LTD., priority 2010, dated 2016).

Some entries repeat one wording, which the source may state once for all of them.

Data set [1] can be described thus: Radical (UV) curability test. The settings on record: UV passes (200 mJ/cm^2 each) until no finger mark; 3% 1-hydroxycyclohexyl phenyl ketone; in the atmosphere.
The nature of data set [2]: Pencil hardness of cured material (JIS K 5600-4). The settings on record: UV-cured film on glass, 25 passes (5 J/cm^2), scratch hardness (pencil method).

Consider `C=CCOCC(=C)C(=O)[O-].C=CCOCC(=C)C(=O)[O-].CC(C)[O][Ti+2][O]C(C)C` [(i-C3H7O)2Ti(AMA)2], for which the Number of posses in data set [1] amounted to 1. Further, in data set [2], the “Pencil hardness Evaluation” value amounted to 3 H.

On to `C=CCOCC(=C)C(=O)[O-].C=CCOCC(=C)C(=O)[O-].C=CCOCC(=C)C(=O)[O-].[Au+3]` [Au(AMA)3], for which the Number of posses in data set [1] came out at 5.

`C=CCOCC(=C)C(=O)OCC(C)(C)COC(=O)C(=C)COCC=C` [NPG-AMA, neopentyl glycol di(α-allyloxymethyl acrylate), reference compound] had a Number of posses in data set [1] of 21. The “Pencil hardness Evaluation” value in data set [2] stood at 2 H.

In data set [1], `C=CCOCC(=C)C(=O)O.CCN(CC)CC` [(C2H5)3NH(AMA)] returned a Number of posses of 1.

For `C=CC(=O)OCC(C)(C)COC(=O)C=C` [NPGDA, reference compound], the Number of posses in data set [1] came out at 23. Further, in data set [2], the “Pencil hardness Evaluation” value was 3 H.

On to `C=C(C)COCC(=C)C(=O)[O-].C=C(C)COCC(=C)C(=O)[O-].[Zn+2]` [Zn(MAMA)2], for which, in data set [1], the Number of posses was 3. For the same molecule, the “Pencil hardness Evaluation” value in data set [2] came out at 5 H.

Regarding `C=C(C)C(=O)[O-].C=CCOCC(=C)C(=O)[O-].[CH3][Sn+2][CH3]` [(CH3)2Sn(AMA)1(MAA)1], the Number of posses in data set [1] came out at 6.

With `C=CCOCC(=C)C(=O)[O-].C=CCOCC(=C)C(=O)[O-].C=CCOCC(=C)C(=O)[O-].[La+3]` [La(AMA)3], the Number of posses in data set [1] was determined as 1. Also, in data set [2], the “Pencil hardness Evaluation” value lay in the range of 4 to 5 H.

Molecule `C=CCOCC(=C)C(=O)OCCOCCOC(=O)C(=C)COCC=C` [DEG-AMA, diethylene glycol di(α-allyloxymethyl acrylate), reference compound] displayed a Number of posses in data set [1] of 13. Also, the “Pencil hardness Evaluation” value in data set [2] is reported as 2 H.

On to `C=CCOCC(=C)C(=O)[O-].C=CCOCC(=C)C(=O)[O-].C=CCOCC(=C)C(=O)[O-].[Fe+3]` [Fe(AMA)3], for which the Number of posses result in data set [1] is “X (A film whose surface still had a mark of the finger even after 25 passes was evaluated as “x”)”.

In data set [1], `C=CCOCC(=C)C(=O)[O-].C=CCOCC(=C)C(=O)[O-].[CH3][Sn+2][CH3]` [(CH3)2Sn(AMA)2] gave a Number of posses of 5. Besides, the “Pencil hardness Evaluation” value in data set [2] came to 3 H.

For `C=CCOCC(=C)C(=O)[O-].C=CCOCC(=C)C(=O)[O-].C=CCOCC(=C)C(=O)[O-].[Al+3]` [Al(AMA)3], the Number of posses in data set [1] turned out to be 1. Besides, the “Pencil hardness Evaluation” value in data set [2] amounted to 9 H.

With `C=CCOCC(=C)C(=O)[O-].C=CCOCC(=C)C(=O)[O-].CCC[O][Zr+2][O]CCC` [(n-C3H7O)2Zr(AMA)2], the Number of posses in data set [1] is reported as 1.

In the case of `C=C(C)C(=O)[O-].C=CCOCC(=C)C(=O)[O-].[Ni+2]` [Ni(AMA)1(MAA)1], the Number of posses in data set [1] amounted to 6.

`C=CC(=O)OCCC(=O)O.[Zr]` [Zr(CEA)4, Zirconium carboxyethyl acrylate, reference compound] had a Number of posses in data set [1] of 1. In addition, the “Pencil hardness Evaluation” value in data set [2] stood at 3 H.

`C=CCOCC(=C)C(=O)[O-].C=CCOCC(=C)C(=O)[O-].[Ba+2]` [Ba(AMA)2] registered a Number of posses in data set [1] of 1. Moreover, in data set [2], the “Pencil hardness Evaluation” value was found to be 3 H.

In turn, `C=CCOCC(=C)C(=O)[O-].C=CCOCC(=C)C(=O)[O-].C=CCOCC(=C)C(=O)[O-].[Bi+3]` [Bi(AMA)3] gave a Number of posses in data set [1] of 1. In addition, the “Pencil hardness Evaluation” value in data set [2] is given as 3 H.

In data set [1], `C=CC(=O)[O-].C=CCOCC(=C)C(=O)[O-].[Cu+2]` [Cu(AMA)1(AA)1] had a Number of posses of 2.

`C=CC(=O)OCC(CC)(COC(=O)C=C)COC(=O)C=C` [TMPTA, reference compound]: the Number of posses in data set [1] is on record as 8. Further, the “Pencil hardness Evaluation” value in data set [2] fell in the range of 4 to 5 H.

Turning to `C=CCOCC(=C)C(=O)[O-].C=CCOCC(=C)C(=O)[O-].C=CCOCC(=C)C(=O)[O-].[Er+3]` [Er(AMA)3], the Number of posses in data set [1] was determined as 1. For the same molecule, the “Pencil hardness Evaluation” value in data set [2] is 9 H.

Molecule `C=CCOCC(=C)C(=O)[O-].C=CCOCC(=C)C(=O)[O-].[O]=[Zr+2]` [ZrO(AMA)2] showed a Number of posses in data set [1] of 1. In data set [2], the “Pencil hardness Evaluation” value is 8 H.

Regarding `CCCCC(CC)C(=O)[O-].CCCCC(CC)C(=O)[O-].[Zn+2]` (stereo not shown) [Zn(Oc)2, Zinc octoate, reference compound], in data set [1], the Number of posses entry is given as “X (A film whose surface still had a mark of the finger even after 25 passes was evaluated as “x”)”.

As for `C=CCOCC(=C)C(=O)[O-].C=CCOCC(=C)C(=O)[O-].[Zn+2]` [Zn(AMA)2], the Number of posses in data set [1] was found to be 3. For the same molecule, in data set [2], the “Pencil hardness Evaluation” value came to 5 H.

Turning to `C=CCOCC(=C)C(=O)[O-].C=CCOCC(=C)C(=O)[O-].C=CCOCC(=C)C(=O)[O-].[Eu+3]` [Eu(AMA)3], the Number of posses in data set [1] was found to be 1. Further, the “Pencil hardness Evaluation” value in data set [2] stood at 5 H.

`C=CC(=O)[O-].C=CC(=O)[O-].[Zn+2]` [Zn(AA)2, Zinc acrylate, reference compound] registered a Number of posses in data set [1] of 1.

`C=CC(=O)[O-].C=CCOCC(=C)C(=O)[O-].C=CCOCC(=C)C(=O)[O-].[Fe+3]` [Fe(AMA)2(AA)1] displayed a Number of posses in data set [1] of 6.

With `C=C(C)C(=O)[O-].C=CCOCC(=C)C(=O)[O-].C=CCOCC(=C)C(=O)[O-].[In+3]` [In(AMA)2(MAA)1], the Number of posses in data set [1] is reported as 1. Moreover, the “Pencil hardness Evaluation” value in data set [2] amounted to 5 H.

In the case of `C=CCOCC(=C)C(=O)[O-].C=CCOCC(=C)C(=O)[O-].[Cu+2]` [Cu(AMA)2], the Number of posses entry in data set [1] is “X (A film whose surface still had a mark of the finger even after 25 passes was evaluated as “x”)”.

In the case of `C=CCOCC(=C)C(=O)[O-].C=CCOCC(=C)C(=O)[O-].C=CCOCC(=C)C(=O)[O-].[Cr+3]` [Cr(AMA)3], in data set [1], the Number of posses was found to be 2. Further, the “Pencil hardness Evaluation” value in data set [2] is 7 H.

In turn, `C=CC(=O)OCCOCCOC(=O)C=C` [DEGDA, reference compound] showed a Number of posses in data set [1] of 14. For the same molecule, the “Pencil hardness Evaluation” value in data set [2] came out at 2 H.
